± gives the standard deviation of the averaged measurements. Most entries show no effect beyond the scatter of the controls.
Columns and labels:
Assay in all cases: level (log10 ratio to DMSO vehicle control); higher = higher biomarker level / cell amount than vehicle control
[1] = compound: C=C(C)C(=O)OCC(F)(F)C(F)(F)C(F)(F)F [2,2,3,3,4,4,4-Heptafluorobutyl methacrylate]; conditions: 2200 nM; in DMSO
Method: (§1)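 BioMAP Diversity Plus panel of 12 human primary cell co-culture systems (3C, 4H, LPS, SAg, BT, BF4T, BE3C, CASM3C, HDF3CGF, KF3CT, MyoF, Mphg). Compounds were added 1 h before stimulation and left for 24 h (MyoF 48 h; BT 72 h for soluble read-outs or 6 d for IgG). Biomarkers were read by ELISA, cytotoxicity by SRB, PBMC viability and proliferation by Alamar Blue. Each well value was divided by the mean of 8 DMSO control wells on the same plate and log10 transformed; duplicate blinded samples were tested at 4 concentrations.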

[2] = compound: C=CC(=O)OCC(F)(F)C(F)(F)C(F)(F)C(F)(F)COC(=O)C=C [1H,1H,6H,6H-Perfluorohexane-1,6-diol diacrylate]; conditions: 2200 nM; in DMSO
Method: as §1

[3] = compound: FC(F)(F)C(F)(F)C(F)(F)C(F)(F)C(F)(F)C(F)(F)C(F)(F)CCI [1-Iodo-1H,1H,2H,2H-perfluorononane]; conditions: in DMSO
Method: as §1

[4] = compound: FC(F)(F)C(F)(F)C(F)(F)C(F)(F)C(F)(F)C(F)(F)C(F)(F)I [1-Iodopentadecafluoroheptane]; conditions: in DMSO
Method: as §1

[5] = compound: FC(F)C(F)(F)COCC1CO1 [((2,2,3,3-Tetrafluoropropoxy)methyl)oxirane]; conditions: 2200 nM; in DMSO
Method: as §1

[6] = compound: NC(=O)C(F)(F)C(F)(F)C(F)(F)C(F)(F)C(F)(F)C(F)(F)C(F)(F)F [Perfluorooctanamide]; conditions: 2200 nM; in DMSO
Method: as §1

[7] = compound: O=C(O)C(F)(F)C(F)(F)C(F)(F)C(F)(F)C(F)(F)C(F)(F)C(F)(F)C(F)(F)C(F)(F)C(F)(F)F [Perfluoroundecanoic acid]; conditions: in DMSO
Method: as §1

[8] = compound: O=C(O)C(F)(F)C(F)(F)C(F)(F)C(F)(F)C(F)(F)C(F)(F)C(F)(F)C(F)F [9-H-Perfluorononanoic acid]; conditions: 2200 nM; in DMSO
Method: as §1

[9] = compound: O=C(O)C(F)(F)C(F)(F)C(F)(F)F [Perfluorobutanoic acid]; conditions: 2200 nM; in DMSO
Method: as §1

[10] = compound: O=C(O)C(F)(F)C(F)(F)F [Perfluoropropanoic acid]; conditions: 2200 nM; in DMSO
Method: as §1

[11] = compound: O=C(O)C(F)(F)C(F)(F)OC(F)(F)F [Perfluoro-3-methoxypropanoic acid]; conditions: 2200 nM; in DMSO
Method: as §1

[12] = compound: O=C(O)C(F)(F)OC(F)(F)C(F)(F)OC(F)(F)C(=O)O [Perfluoro-3,6-dioxaoctane-1,8-dioic acid]; conditions: 2200 nM; in DMSO
Method: as §1

[13] = compound: O=C(O)C(F)(F)OC(F)(F)C(F)(F)OC(F)(F)C(F)(F)C(F)(F)C(F)(F)F [Perfluoro-3,6-dioxadecanoic acid]; conditions: 2200 nM; in DMSO
Method: as §1

[14] = compound: O=C(O)C=CC(F)(C(F)(F)F)C(F)(F)F [3-(Perfluoroisopropyl)-2-propenoic acid]; conditions: in DMSO
Method: as §1

[15] = compound: O=P(O)(O)CCC(F)(F)C(F)(F)C(F)(F)C(F)(F)C(F)(F)C(F)(F)C(F)(F)C(F)(F)F [((Perfluorooctyl)ethyl)phosphonic acid]; conditions: 2200 nM; in DMSO
Method: as §1

[16] = compound: O=S(=O)(Cl)C(F)(F)C(F)(F)C(F)(F)C(F)(F)C(F)(F)C(F)(F)C(F)(F)C(F)(F)F [Perfluoro-1-octanesulfonyl chloride]; conditions: 2200 nM; in DMSO
Method: as §1

[17] = compound: OCC(F)(F)C(F)(F)C(F)(F)C(F)(F)C(F)(F)C(F)(F)C(F)(F)C(F)(F)C(F)(F)C(F)(F)C(F)(F)F [11:1 Fluorotelomer alcohol]; conditions: in DMSO
Method: as §1

[18] = compound: OCCC(F)(F)C(F)(F)C(F)(F)C(F)(F)C(F)(F)C(F)(F)C(F)(F)C(F)(F)F [8:2 Fluorotelomer alcohol]; conditions: 2200 nM; in DMSO
Method: as §1

Row | Test System | level (log10) [1] | level (log10) [2] | level (log10) ([3]; 740 nM) | level (log10) ([3]; 2200 nM) | level (log10) ([3]; 6700 nM) | level (log10) ([3]; 20000 nM) | level (log10) ([4]; 740 nM) | level (log10) ([4]; 2200 nM) | level (log10) ([4]; 6700 nM) | level (log10) ([4]; 20000 nM) | level (log10) [5] | level (log10) [6] | level (log10) ([7]; 740 nM) | level (log10) ([7]; 2200 nM) | level (log10) [8] | level (log10) [9] | level (log10) [10] | level (log10) [11] | level (log10) [12] | level (log10) [13] | level (log10) ([14]; 2200 nM) | level (log10) ([14]; 6700 nM) | level (log10) ([14]; 20000 nM) | level (log10) ([14]; 60000 nM) | level (log10) [15] | level (log10) [16] | level (log10) ([17]; 370 nM) | level (log10) ([17]; 1100 nM) | level (log10) ([17]; 3300 nM) | level (log10) ([17]; 10000 nM) | level (log10) [18]
1 | HDF3CGF:CXCL10/IP-10 | -0.0015 ± 0.044 | -0.128 ± 0.0085 | -0.0245 ± 0.028 | 0.002 ± 0.0042 | -0.0265 ± 0.0035 | -0.0645 ± 0.03 | 0.0005 ± 0.023 | -0.013 ± 0.0014 | 0.0025 ± 0.0021 | -0.026 ± 0.0071 | -0.033 ± 0.014 | -0.0085 ± 0.015 | -0.013 ± 0.0071 | -0.0085 ± 0.0021 | -0.0215 ± 0.022 | 0 ± 0.0071 | 0.0075 ± 0.028 | -0.0125 ± 0.0021 | -0.0095 ± 0.022 | -0.0385 ± 0.028 | 0.005 ± 0.079 | -0.007 ± 0.034 | 0.0025 ± 0.035 | -0.001 ± 0.027 | 0.073 ± 0.0028 | 0.0025 ± 0.022 | -0.0165 ± 0.005 | -0.0435 ± 0.015 | -0.0725 ± 0.0064 | -0.039 ± 0.02 | -0.0085 ± 0.00071
2 | HDF3CGF:Collagen I | -0.016 | 0.051 ± 0.045 | -0.02 ± 0.064 | -0.057 ± 0.033 | 0.0105 ± 0.042 | -0.011 ± 0.058 | 0.03 ± 0.03 | 0.0005 ± 0.0092 | 0.017 ± 0.033 | -0.005 ± 0.017 | 0.0255 ± 0.096 | 0.0275 ± 0.1 | 0.0235 ± 0.015 | 0.021 ± 0.054 | 0.0325 ± 0.14 | 0.0185 ± 0.032 | 0.023 ± 0.05 | 0.027 ± 0.13 | 0.009 ± 0.12 | -0.0035 ± 0.097 | 0.022 ± 0.078 | -0.0205 ± 0.043 | -0.0065 ± 0.023 | 0.0475 ± 0.035 | 0.0165 ± 0.07 | -0.0295 ± 0.018 | 0.3 ± 0.017 | 0.438 ± 0.0099 | 0.471 ± 0.03 | 0.394 ± 0.062 | -0.003 ± 0.037
3 | CASM3C:CD87/uPAR | -0.021 ± 0.014 | 0.015 ± 0.023 | -0.0005 ± 0.016 | -0.011 ± 0.038 | -0.0105 ± 0.028 | -0.013 ± 0.028 | -0.0035 ± 0.00071 | -0.0365 ± 0.03 | -0.019 ± 0.031 | -0.0195 ± 0.018 | 0.0025 ± 0.033 | -0.012 ± 0.0014 | -0.0215 ± 0.015 | -0.045 ± 0.0085 | 0.001 ± 0.0014 | -0.0135 ± 0.0021 | 0.021 ± 0.0099 | -0.0015 ± 0.016 | -0.0025 ± 0.011 | -0.0495 ± 0.0078 | -0.008 ± 0.013 | -0.006 ± 0.0057 | -0.0135 ± 0.012 | -0.015 ± 0.0042 | 0.003 ± 0.0042 | -0.006 ± 0.03 | 0.0125 ± 0.011 | 0.0055 ± 0.025 | -0.004 ± 0.021 | 0.0085 ± 0.032 | -0.0365 ± 0.044
4 | BF4T:Keratin 8/18 | -0.021 ± 0.023 | -0.014 ± 0.0085 | -0.003 ± 0.071 | -0.0125 ± 0.043 | -0.016 ± 0.052 | -0.0135 ± 0.0092 | -0.0145 ± 0.05 | -0.011 ± 0.021 | -0.031 ± 0.021 | -0.054 ± 0.0028 | 0.0095 ± 0.023 | -0.0355 ± 0.043 | 0.0065 ± 0.022 | 0.008 ± 0.0028 | 0.0125 ± 0.04 | 0.0115 ± 0.00071 | -0.009 ± 0.021 | 0.014 ± 0.024 | -0.0055 ± 0.00071 | 0.01 ± 0.031 | 0.0035 ± 0.019 | -0.018 ± 0.028 | -0.0135 ± 0.0021 | -0.0035 ± 0.044 | 0.0015 ± 0.012 | 0.0055 ± 0.023 | -0.001 ± 0.033 | 0.0025 ± 0.026 | -0.009 ± 0.03 | -0.0075 ± 0.025 | 0.0055 ± 0.019
5 | 3C:SRB | -0.003 ± 0.0014 | 0.011 ± 0.0099 | 0.014 ± 0.024 | 0.0055 ± 0.0064 | 0.0125 ± 0.015 | 0.0295 ± 0.03 | -0.0035 ± 0.011 | -0.003 ± 0.0042 | -0.001 | 0.001 ± 0.0014 | -0.005 ± 0.0099 | -0.008 ± 0.014 | 0.021 ± 0.0099 | 0.0145 ± 0.0021 | 0.005 ± 0.0014 | -0.008 | 0.0005 ± 0.0078 | -0.015 ± 0.014 | -0.0125 ± 0.0078 | -0.0255 ± 0.018 | -0.0045 ± 0.012 | 0.0035 ± 0.0078 | 0.0055 ± 0.019 | 0.0155 ± 0.015 | 0.0005 ± 0.016 | -0.0105 ± 0.015 | 0.0065 ± 0.012 | -0.043 ± 0.0014 | -0.115 ± 0.021 | -0.116 ± 0.014 | -0.0195 ± 0.023
6 | lMphg:CCL3/MIP-1alpha | 0.001 ± 0.023 | 0.024 ± 0.057 | 0.0085 ± 0.028 | -0.01 ± 0.018 | -0.001 | 0.045 ± 0.033 | 0.011 ± 0.02 | 0.0165 ± 0.016 | 0.0225 ± 0.023 | 0.0175 ± 0.049 | -0.0345 ± 0.046 | -0.016 ± 0.014 | -0.016 ± 0.028 | 0.0265 ± 0.013 | 0.0045 ± 0.0064 | 0.03 ± 0.038 | 0.024 ± 0.038 | -0.048 ± 0.0042 | -0.0095 ± 0.019 | -0.0195 ± 0.064 | -0.0085 ± 0.015 | -0.031 ± 0.018 | -0.0285 ± 0.016 | -0.0125 ± 0.016 | -0.0075 ± 0.00071 | -0.0315 ± 0.013 | 0.0285 ± 0.016 | 0.014 ± 0.011 | -0.0165 ± 0.026 | -0.06 ± 0.021 | 0.0065 ± 0.033
7 | BF4T:tPA | 0.017 ± 0.059 | 0.013 ± 0.071 | 0.0085 ± 0.0092 | -0.003 ± 0.017 | 0.0185 ± 0.0064 | -0.0135 ± 0.0064 | -0.014 ± 0.0014 | -0.007 ± 0.018 | 0.022 ± 0.025 | -0.0085 ± 0.016 | 0.031 ± 0.038 | 0.005 ± 0.017 | -0.0105 ± 0.00071 | -0.0205 ± 0.011 | -0.045 ± 0.028 | 0.022 ± 0.031 | -0.002 ± 0.018 | 0.035 ± 0.041 | 0.032 ± 0.042 | -0.0225 ± 0.036 | 0.0215 ± 0.071 | -0.004 ± 0.037 | -0.0055 ± 0.022 | 0.03 ± 0.024 | 0.0135 ± 0.057 | -0.0285 ± 0.012 | -0.0005 ± 0.037 | 0.0015 ± 0.0092 | -0.003 ± 0.0071 | 0.026 ± 0.024 | -0.0495 ± 0.021

Reference: the supplement of paper PMC10331698
